PubChem BioAssay AID1259254 | NCATS | 2017
Purpose: 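Gene knock-downs that lead to re-replication, shown by excess G2 DNA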 (primary screen). Cells: human HCT116 colorectal cancer cells. Reagent: single siRNA against human genes. Duration: 3 days. Measurement: 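Nuclei stained with Hoechst and imaged; cell-cycle phase assigned by DNA content; G2 share scaled per plate, non-targeting siRNA 0%, GMNN siRNA 100%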. Scale: G2 robust z-score and G2 cells, % of GMNN control: higher = more G2 cells, more excess DNA replication. Active means: 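Active siRNAs have a G2 robust z of 5 or more median absolute deviations over the median, which in these data means about 38% or higher of GMNN control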.
Here is a random part of about 59,000 reagents tested. In the full data, about 1,550 (2.6%) got an active call. 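G2 share is only a proxy for re-replication; each gene was hit by three separate siRNAs, and active genes were retested.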 Reagents against one gene are numbered here. Further read-outs or replicates are left out here. Not given: the amount of reagent.

gene	reagent no.	G2 robust z-score	G2 cells, % of GMNN control	Outcome
FGF2	1	0.219	4.51	inactive
FGF2	2	-1.02	-4.2	inactive
FGF2	3	8.19	60.6	active
TRMT1	1	0.795	8.56	inactive
TRMT1	2	-0.768	-2.44	inactive
TRMT1	3	-1.35	-6.52	inactive
KTN1	1	-1.2	-5.45	inactive
KTN1	2	-0.435	-0.0966	inactive
KTN1	3	3.71	29.1	inactive
WDR36	1	-0.259	1.15	inactive
WDR36	2	0.809	8.66	inactive
WDR36	3	1.28	12	inactive
AKR1D1	1	4.36	33.7	inactive
AKR1D1	2	-1.11	-4.81	inactive
AKR1D1	3	-1.04	-4.37	inactive
CCDC188	1	1.31	12.2	inactive
CCDC188	2	0.846	8.92	inactive
CCDC188	3	0.411	5.86	inactive
OTUD4	1	-1.05	-4.43	inactive
OTUD4	2	-0.909	-3.43	inactive
OTUD4	3	0.0747	3.49	inactive
MOSPD3	1	0.689	7.81	inactive
MOSPD3	2	0.797	8.57	inactive
MOSPD3	3	-0.423	-0.00998	inactive
MT1F	1	1.58	14.1	inactive
MT1F	2	2.17	18.2	inactive
MT1F	3	2.76	22.4	inactive
SARAF	1	-0.19	1.63	inactive
SARAF	2	0.715	8	inactive
SARAF	3	-0.492	-0.492	inactive

Individual results from the list.
Under “Outcome”, KTN1 #2 is entered as inactive
MT1F #2, G2 robust z-score = 2.17
KTN1 #1, G2 cells, % of GMNN control: -5.45
Entry for KTN1 #3 in “G2 robust z-score”: 3.71
Under “G2 cells, % of GMNN control”, MOSPD3 #3 is entered as -0.00998
SARAF #1, G2 robust z-score = -0.19

The list goes on:
gene	reagent no.	G2 robust z-score	G2 cells, % of GMNN control	Outcome
WDR33	1	3.6	28.3	inactive
WDR33	2	-0.563	-0.992	inactive
WDR33	3	0.668	7.67	inactive
PTH1R	1	-0.386	0.255	inactive
PTH1R	2	-0.331	0.641	inactive
PTH1R	3	-0.66	-1.68	inactive
GTSE1	1	-0.669	-1.74	inactive
GTSE1	2	0.529	6.69	inactive
GTSE1	3	-0.693	-1.91	inactive
CLEC5A	1	0.124	3.84	inactive
CLEC5A	2	1.64	14.5	inactive
CLEC5A	3	-0.817	-2.78	inactive
JOSD2	1	-0.443	-0.15	inactive
JOSD2	2	0.0356	3.22	inactive
JOSD2	3	0.531	6.7	inactive
MUC15	1	0.292	5.02	inactive
MUC15	2	-0.645	-1.57	inactive
MUC15	3	0.364	5.53	inactive
